According to paper doi:10.1101/2020.07.05.188557:
These are yes or no findings as the source states them, for the method shown. Binding seen in cells or lysates may run through a third protein. Some results given as binding are weak or reduced against the parent protein; the word gives no strength. Tags and fused reporters may be left off the sequences shown. Each block holds one binder with its values, some of them ahead of it.

Columns and labels:
Assay in all cases: split reporter
[1] = target: T1, Bap2-Cub-GST-6xHA (S. cerevisiae) (UniProt P38084)
T1 sequence: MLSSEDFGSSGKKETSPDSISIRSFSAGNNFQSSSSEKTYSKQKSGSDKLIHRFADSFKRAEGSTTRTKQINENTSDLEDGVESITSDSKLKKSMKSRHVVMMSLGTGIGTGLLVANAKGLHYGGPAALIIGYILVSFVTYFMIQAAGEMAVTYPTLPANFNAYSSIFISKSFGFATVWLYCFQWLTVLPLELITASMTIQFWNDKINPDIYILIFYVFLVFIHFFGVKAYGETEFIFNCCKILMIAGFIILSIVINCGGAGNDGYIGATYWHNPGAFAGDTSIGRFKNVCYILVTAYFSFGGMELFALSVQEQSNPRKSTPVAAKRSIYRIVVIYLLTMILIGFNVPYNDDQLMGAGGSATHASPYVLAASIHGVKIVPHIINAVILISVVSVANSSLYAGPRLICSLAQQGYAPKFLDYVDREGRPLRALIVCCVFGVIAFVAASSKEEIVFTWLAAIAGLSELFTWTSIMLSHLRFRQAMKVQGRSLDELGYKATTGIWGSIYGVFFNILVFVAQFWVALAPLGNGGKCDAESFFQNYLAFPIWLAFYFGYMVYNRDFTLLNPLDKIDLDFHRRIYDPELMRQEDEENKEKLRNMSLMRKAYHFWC

[2] = target: T2, Lyp1-Cub-GST-6xHA (S. cerevisiae) (UniProt P32487)
T2 sequence: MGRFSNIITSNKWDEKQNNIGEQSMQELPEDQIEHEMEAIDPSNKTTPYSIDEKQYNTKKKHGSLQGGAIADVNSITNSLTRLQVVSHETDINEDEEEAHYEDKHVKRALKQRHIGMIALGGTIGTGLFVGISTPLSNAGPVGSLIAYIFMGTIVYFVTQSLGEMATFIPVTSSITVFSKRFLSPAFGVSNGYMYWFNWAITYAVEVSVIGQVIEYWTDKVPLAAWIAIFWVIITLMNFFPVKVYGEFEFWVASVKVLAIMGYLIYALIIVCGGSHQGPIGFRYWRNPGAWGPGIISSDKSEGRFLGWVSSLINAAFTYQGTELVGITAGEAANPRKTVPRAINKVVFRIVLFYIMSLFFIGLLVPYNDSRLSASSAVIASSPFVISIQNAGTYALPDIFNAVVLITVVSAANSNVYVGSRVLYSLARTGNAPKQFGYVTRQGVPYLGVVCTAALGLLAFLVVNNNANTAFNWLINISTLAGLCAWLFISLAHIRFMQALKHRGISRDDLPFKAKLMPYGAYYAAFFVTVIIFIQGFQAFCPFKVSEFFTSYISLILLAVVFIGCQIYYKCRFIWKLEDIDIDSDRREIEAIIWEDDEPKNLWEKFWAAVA

[3] = target: T3, Ssy1-Cub-GST-6xHA (S. cerevisiae) (UniProt Q03770)
T3 sequence: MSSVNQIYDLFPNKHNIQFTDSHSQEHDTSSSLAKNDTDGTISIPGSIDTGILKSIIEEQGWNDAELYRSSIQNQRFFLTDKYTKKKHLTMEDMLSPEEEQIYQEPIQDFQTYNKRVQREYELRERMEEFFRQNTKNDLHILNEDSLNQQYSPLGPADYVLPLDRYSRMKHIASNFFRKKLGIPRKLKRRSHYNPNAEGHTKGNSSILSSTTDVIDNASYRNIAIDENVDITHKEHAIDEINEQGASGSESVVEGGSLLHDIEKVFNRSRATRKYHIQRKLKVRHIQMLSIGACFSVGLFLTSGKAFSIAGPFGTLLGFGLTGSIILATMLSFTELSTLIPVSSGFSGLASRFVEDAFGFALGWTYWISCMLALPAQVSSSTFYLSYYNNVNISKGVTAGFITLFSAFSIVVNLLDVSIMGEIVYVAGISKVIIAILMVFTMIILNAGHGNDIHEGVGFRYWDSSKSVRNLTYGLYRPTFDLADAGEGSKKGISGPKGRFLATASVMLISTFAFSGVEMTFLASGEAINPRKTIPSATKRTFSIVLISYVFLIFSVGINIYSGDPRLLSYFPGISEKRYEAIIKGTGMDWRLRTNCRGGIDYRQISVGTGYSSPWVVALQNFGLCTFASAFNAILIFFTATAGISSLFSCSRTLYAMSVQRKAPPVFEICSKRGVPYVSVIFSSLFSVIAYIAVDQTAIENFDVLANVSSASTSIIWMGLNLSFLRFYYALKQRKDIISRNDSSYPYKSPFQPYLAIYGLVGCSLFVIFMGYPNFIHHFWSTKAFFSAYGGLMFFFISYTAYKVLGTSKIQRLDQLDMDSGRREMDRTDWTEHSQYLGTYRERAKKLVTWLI

binding [1]: binds
binding [2]: binds weakly
binding [3]: binds
B1: Shr3-NubA (protein, UniProt Q02774 1-210)
chain: MFSYSDFCSIGTAMILSATTFLMGVFFSNMPYDYHLLFNPNSTQEHFDLALRHYQILHETPLPVIVTLCVVAGIGLVGGTIKVFKPNPELQMFEYCSLGLYVLAICVFLTNVKTGIDCSVSHNWGEVTENQGLAVIASSNIILLVMFAGVIILQIGLWYSNWDLQKRLKEFYAQEEREAANAGKKTEKVDNAKKNDNKSKGAQKRKNAKK

binding [1]: binds
binding [2]: binds weakly
binding [3]: binds
B2: Shr3Δ94-NubA (protein, UniProt Q02774)
chain: MFSYSDFCSIGTAMILSATTFLMGVFFSNMPYDYHLLFNPNSTQEHFDLALRHYQILHETPLPVIVTLCVVAGIGLVGGTIKVFKPNPELQMFEYCSLGLYVLAICVFLTNVKTGIDCSVTENQGLAVIASSNIILLVMFAGVIILQIGLWYSNWDLQKRLKEFYAQEEREAANAGKKTEKVDNAKKNDNKSKGAQKRKNAKK
